Some of the results follow.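 How the source made its calls: active = dose-dependent thermal stabilisation significant by F-test of dose-response against flat model at 10% FDR; inactive = not significant.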
Compound: Nc1nc2c(ncn2[C@@H]2O[C@H](COP(=O)(O)OP(=O)(O)OP(=O)(O)O)[C@@H](O)[C@H]2O)c(=O)[nH]1
Experiment: dose-dependent thermal stabilisation call (2D-TPP, DLPTP, 10% FDR) (binary (1 = stabilised)); higher = stabilised by the compound
Conditions: system: Jurkat gel-filtered lysate; concentration range 1-500 µM

Amino acid sequences for entries named in this document (tags omitted). A change or cut given only in a name is not applied to a line headed by its entry.
UniProt O43542: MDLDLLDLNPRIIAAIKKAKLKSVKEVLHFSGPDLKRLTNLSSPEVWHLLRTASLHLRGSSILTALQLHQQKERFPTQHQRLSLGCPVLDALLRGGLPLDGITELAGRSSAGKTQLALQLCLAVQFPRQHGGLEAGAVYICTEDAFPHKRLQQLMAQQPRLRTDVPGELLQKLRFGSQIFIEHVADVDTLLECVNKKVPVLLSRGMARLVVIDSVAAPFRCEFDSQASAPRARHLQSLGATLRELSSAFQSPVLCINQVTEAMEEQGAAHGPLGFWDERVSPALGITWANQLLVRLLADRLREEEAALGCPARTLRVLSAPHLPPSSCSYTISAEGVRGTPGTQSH
UniProt Q9Y5K5, whole entry: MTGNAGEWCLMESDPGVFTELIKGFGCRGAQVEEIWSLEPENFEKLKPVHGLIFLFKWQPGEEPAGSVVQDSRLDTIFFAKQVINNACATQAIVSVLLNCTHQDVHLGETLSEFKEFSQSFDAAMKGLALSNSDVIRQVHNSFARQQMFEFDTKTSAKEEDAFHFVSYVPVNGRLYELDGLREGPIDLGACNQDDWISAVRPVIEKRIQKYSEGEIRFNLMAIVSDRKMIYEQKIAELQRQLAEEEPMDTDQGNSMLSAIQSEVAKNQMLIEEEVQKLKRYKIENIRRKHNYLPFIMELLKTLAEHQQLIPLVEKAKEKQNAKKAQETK
UniProt Q8TCF1: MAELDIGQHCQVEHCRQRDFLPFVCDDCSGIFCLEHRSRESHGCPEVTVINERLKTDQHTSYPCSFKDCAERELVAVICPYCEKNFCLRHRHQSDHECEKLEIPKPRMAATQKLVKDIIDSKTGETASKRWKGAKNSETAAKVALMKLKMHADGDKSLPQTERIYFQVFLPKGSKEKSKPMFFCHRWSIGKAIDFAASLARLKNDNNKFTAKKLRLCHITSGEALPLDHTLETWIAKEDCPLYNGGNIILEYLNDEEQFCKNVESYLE
UniProt Q9ULJ3: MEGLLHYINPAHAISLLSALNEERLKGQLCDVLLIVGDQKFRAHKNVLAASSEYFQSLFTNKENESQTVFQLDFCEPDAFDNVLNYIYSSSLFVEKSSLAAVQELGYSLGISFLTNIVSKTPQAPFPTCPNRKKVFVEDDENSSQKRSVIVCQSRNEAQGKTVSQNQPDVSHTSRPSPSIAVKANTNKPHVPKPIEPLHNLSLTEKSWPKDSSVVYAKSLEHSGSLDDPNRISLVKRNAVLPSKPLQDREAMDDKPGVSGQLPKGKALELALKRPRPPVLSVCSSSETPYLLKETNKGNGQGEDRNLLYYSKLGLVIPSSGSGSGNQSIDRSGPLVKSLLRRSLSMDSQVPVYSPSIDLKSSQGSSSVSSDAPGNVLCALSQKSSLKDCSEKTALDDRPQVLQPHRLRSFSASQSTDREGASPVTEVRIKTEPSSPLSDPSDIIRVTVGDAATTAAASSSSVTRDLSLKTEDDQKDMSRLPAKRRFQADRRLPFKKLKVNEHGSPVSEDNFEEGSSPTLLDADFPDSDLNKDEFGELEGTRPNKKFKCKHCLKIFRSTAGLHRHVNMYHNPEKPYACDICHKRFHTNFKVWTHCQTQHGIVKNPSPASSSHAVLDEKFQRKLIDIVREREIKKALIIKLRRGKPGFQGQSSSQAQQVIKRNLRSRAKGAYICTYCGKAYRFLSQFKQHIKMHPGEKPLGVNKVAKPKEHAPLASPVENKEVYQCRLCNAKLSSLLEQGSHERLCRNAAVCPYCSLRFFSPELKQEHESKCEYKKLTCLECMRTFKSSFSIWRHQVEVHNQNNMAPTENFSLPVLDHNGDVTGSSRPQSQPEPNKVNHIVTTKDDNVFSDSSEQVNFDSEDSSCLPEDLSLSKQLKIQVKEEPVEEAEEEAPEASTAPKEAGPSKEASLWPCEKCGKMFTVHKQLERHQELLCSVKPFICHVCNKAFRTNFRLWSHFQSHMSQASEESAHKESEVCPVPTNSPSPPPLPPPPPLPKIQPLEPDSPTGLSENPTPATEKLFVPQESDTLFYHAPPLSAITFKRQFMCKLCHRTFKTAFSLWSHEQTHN
UniProt P45974: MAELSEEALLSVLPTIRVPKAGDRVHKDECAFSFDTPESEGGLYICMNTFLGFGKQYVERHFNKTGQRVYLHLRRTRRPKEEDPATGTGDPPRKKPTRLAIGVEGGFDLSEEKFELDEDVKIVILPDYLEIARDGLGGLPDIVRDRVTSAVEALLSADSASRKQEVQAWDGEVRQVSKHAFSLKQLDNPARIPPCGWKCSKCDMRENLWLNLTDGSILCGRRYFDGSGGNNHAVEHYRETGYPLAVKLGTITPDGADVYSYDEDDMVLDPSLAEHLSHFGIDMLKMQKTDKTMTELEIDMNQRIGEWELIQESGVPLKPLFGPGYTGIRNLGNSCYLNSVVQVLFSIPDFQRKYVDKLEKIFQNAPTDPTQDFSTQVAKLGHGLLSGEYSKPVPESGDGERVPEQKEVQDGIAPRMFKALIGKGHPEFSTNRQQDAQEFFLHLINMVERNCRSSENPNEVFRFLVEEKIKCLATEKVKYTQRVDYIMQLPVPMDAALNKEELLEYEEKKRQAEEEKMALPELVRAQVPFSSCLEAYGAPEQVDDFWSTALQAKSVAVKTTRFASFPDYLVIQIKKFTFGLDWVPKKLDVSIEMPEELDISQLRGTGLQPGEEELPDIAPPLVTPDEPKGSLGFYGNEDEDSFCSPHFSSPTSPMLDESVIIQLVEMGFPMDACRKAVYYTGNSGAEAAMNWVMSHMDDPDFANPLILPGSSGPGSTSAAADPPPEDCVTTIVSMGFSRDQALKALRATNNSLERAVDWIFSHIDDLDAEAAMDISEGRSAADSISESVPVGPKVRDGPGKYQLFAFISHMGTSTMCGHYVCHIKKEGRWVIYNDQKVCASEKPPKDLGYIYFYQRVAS
UniProt P42768: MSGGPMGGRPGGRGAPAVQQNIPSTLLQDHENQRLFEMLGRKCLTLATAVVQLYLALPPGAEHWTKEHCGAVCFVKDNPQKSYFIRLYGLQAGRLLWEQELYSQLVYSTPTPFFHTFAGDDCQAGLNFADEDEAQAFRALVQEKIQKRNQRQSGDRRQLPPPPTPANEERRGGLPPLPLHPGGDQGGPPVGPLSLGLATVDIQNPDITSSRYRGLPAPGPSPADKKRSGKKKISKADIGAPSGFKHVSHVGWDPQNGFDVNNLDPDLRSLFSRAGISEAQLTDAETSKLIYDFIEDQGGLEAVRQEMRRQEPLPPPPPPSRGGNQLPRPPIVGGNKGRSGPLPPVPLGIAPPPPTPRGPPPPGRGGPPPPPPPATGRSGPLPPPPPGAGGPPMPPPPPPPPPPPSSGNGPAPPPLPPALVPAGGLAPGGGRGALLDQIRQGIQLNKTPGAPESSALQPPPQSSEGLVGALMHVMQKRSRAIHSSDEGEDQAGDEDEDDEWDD
UniProt O43592: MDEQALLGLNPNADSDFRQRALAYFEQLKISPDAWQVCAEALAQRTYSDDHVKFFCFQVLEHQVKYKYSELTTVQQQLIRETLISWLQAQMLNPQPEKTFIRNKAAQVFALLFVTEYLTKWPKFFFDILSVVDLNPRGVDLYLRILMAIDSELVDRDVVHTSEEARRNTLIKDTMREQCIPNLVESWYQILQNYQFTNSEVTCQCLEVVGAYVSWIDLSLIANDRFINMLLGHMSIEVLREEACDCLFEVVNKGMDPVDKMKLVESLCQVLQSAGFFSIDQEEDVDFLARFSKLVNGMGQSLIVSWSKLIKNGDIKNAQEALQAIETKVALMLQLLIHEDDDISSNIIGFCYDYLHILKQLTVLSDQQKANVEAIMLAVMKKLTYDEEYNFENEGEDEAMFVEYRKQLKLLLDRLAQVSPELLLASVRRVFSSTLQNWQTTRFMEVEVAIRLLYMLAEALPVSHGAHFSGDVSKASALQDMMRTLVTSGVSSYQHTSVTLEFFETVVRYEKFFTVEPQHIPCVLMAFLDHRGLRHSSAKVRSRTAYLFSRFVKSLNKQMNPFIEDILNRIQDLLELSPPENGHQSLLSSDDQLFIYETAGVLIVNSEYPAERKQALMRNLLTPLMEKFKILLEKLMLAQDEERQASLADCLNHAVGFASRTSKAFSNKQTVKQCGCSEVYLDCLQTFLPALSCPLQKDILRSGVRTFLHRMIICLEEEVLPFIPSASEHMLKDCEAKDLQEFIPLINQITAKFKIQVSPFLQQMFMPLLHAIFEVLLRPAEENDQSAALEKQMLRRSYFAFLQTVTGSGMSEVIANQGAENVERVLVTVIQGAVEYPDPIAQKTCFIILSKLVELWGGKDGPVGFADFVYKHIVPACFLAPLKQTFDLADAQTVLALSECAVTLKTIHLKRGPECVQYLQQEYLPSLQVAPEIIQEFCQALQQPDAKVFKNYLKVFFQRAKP
UniProt P61088: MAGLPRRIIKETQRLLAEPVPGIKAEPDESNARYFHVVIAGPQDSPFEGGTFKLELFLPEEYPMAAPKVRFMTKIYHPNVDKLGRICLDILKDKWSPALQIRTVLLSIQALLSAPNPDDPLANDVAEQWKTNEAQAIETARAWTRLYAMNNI
UniProt P63104: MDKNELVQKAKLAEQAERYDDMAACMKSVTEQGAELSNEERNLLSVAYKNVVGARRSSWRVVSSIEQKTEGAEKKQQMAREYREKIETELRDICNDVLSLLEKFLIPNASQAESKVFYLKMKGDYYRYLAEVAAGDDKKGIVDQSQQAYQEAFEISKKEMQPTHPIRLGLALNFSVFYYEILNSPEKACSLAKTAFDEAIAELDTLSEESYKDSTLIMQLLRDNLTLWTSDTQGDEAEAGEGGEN
UniProt P62253: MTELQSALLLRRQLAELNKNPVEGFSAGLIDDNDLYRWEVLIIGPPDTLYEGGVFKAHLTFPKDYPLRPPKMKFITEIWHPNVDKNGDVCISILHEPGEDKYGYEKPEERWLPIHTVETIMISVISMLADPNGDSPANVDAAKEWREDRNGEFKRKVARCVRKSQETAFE
UniProt Q8WV99: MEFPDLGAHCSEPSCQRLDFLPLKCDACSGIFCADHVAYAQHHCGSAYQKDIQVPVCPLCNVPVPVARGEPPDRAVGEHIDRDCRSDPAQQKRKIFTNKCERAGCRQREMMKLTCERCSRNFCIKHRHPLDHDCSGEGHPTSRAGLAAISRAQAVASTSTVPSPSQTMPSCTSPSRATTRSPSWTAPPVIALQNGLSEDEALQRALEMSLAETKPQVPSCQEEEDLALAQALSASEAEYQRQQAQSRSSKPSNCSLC
UniProt Q6BDS2: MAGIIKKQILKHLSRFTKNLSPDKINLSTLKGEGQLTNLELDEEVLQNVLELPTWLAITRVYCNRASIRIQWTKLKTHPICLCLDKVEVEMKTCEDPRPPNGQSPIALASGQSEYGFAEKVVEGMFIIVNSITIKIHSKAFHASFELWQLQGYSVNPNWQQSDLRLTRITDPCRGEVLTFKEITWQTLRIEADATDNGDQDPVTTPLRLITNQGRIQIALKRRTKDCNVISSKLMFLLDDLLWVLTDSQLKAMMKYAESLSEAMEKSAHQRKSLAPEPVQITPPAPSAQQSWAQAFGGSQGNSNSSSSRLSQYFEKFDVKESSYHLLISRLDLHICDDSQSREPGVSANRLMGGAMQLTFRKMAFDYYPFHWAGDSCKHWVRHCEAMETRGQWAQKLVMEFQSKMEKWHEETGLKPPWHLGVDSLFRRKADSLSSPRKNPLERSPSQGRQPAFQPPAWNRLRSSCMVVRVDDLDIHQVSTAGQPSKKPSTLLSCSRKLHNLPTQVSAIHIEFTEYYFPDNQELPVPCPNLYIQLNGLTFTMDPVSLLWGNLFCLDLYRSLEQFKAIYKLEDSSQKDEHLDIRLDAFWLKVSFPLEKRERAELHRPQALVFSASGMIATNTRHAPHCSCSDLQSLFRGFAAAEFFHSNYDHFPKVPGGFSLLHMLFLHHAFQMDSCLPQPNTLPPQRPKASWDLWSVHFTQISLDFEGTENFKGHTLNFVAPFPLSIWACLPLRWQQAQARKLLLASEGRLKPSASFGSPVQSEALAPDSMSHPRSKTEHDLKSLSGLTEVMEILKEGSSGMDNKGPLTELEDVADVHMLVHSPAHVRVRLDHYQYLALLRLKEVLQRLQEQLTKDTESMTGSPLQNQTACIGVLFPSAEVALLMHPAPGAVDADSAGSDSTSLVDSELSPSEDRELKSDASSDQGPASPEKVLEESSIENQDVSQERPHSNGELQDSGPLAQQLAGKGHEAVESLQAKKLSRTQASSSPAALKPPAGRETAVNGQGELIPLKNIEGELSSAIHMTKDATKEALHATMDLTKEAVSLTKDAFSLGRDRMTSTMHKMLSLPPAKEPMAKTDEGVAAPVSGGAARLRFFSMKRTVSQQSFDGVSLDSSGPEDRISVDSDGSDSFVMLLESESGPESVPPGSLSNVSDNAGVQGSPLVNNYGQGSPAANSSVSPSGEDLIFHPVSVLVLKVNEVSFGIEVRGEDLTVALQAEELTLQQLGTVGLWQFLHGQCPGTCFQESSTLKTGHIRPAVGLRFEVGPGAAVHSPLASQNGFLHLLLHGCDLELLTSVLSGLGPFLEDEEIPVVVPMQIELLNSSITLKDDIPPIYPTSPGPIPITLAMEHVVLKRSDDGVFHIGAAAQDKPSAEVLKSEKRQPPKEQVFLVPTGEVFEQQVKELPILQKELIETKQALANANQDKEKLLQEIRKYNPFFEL

dose-dependent thermal stabilisation call, active:
UBE2R2 (UniProt Q712K3) 1
WDR92 (UniProt Q96MX6) 1
VAV2 (UniProt P52735) 1
UPRT (UniProt Q96BW1) 1
XPO1 (UniProt O14980) 1
XRCC3 (UniProt O43542) 1

dose-dependent thermal stabilisation call, inactive:
UCHL3 (UniProt P15374) 0
WIPI2 (UniProt Q9Y4P8) 0
UROD (UniProt P06132) 0
UCHL5 (UniProt Q9Y5K5) 0
ZFAND1 (UniProt Q8TCF1) 0
USP3 (UniProt Q9Y6I4) 0
ZBTB21 (UniProt Q9ULJ3) 0
USP5 (UniProt P45974) 0
WAS (UniProt P42768) 0
VCL (UniProt P18206) 0
UHRF1 (UniProt Q96T88) 0
ZC3H18 (UniProt Q86VM9) 0
ZCCHC8 (UniProt Q6NZY4) 0
VASP (UniProt P50552) 0
UBL5 (UniProt Q9BZL1) 0
UBXN1 (UniProt Q04323) 0
WDR5 (UniProt P61964) 0
UGGT1 (UniProt Q9NYU2) 0
XPOT (UniProt O43592) 0
UBE2N (UniProt P61088) 0
YAE1D1 (UniProt Q9NRH1) 0
WASHC5 (UniProt Q12768) 0
WDR55 (UniProt Q9H6Y2) 0
URI1 (UniProt O94763) 0
YWHAZ (UniProt P63104) 0
UBE2G1 (UniProt P62253) 0
YWHAE (UniProt P62258) 0
ZFAND2B (UniProt Q8WV99) 0
UBN1 (UniProt Q9NPG3) 0
UHRF1BP1 (UniProt Q6BDS2) 0
